This is an account of results in paper PMC4683056.

By UniProt entry, the sequences of proteins in these tests, tags left out.
UniProt Q8IZD2: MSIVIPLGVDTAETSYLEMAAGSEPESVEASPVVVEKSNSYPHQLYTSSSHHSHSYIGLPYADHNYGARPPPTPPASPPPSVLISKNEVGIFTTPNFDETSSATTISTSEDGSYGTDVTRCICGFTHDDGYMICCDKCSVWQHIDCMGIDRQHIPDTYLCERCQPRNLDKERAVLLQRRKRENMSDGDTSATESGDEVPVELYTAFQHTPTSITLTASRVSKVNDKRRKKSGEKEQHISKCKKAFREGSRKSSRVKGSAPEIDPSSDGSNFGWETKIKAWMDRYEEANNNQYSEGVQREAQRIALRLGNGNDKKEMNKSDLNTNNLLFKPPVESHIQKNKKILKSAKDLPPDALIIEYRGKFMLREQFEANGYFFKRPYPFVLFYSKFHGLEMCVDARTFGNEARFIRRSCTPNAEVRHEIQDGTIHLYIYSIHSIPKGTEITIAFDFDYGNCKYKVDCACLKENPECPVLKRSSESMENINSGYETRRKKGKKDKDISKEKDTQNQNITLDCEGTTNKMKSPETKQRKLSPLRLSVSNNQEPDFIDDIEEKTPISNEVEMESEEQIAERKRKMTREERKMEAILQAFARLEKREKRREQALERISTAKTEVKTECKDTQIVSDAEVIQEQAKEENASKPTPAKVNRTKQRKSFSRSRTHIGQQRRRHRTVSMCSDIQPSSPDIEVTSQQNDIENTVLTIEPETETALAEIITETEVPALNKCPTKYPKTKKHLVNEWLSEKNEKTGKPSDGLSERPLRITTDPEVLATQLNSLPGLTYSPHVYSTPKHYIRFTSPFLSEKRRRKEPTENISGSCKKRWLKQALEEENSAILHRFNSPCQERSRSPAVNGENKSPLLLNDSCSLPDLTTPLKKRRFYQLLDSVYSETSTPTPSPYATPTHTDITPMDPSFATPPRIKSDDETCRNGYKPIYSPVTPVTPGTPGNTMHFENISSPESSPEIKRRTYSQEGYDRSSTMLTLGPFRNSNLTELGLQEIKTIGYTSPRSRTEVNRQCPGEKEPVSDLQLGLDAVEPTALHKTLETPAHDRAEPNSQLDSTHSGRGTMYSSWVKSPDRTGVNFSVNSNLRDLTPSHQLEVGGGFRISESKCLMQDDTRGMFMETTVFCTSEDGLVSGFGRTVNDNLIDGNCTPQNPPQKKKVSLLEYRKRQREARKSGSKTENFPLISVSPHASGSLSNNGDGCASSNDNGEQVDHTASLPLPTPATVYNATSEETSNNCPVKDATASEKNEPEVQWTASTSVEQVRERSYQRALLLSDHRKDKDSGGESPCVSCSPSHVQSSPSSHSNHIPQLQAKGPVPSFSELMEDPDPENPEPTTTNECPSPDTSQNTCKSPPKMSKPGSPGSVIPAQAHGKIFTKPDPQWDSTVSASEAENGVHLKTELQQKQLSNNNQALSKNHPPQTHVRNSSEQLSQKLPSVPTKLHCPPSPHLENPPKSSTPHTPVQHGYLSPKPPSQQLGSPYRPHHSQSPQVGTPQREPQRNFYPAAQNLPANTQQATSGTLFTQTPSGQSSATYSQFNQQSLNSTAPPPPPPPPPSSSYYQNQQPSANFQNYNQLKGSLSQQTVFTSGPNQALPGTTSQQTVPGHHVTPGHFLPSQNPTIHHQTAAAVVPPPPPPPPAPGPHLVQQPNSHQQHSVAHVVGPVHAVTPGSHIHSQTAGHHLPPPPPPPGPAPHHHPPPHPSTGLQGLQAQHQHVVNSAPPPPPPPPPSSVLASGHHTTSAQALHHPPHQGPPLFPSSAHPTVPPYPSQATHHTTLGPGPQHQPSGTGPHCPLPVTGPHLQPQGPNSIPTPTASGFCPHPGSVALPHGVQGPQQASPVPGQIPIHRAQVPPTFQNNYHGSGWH
UniProt Q93009: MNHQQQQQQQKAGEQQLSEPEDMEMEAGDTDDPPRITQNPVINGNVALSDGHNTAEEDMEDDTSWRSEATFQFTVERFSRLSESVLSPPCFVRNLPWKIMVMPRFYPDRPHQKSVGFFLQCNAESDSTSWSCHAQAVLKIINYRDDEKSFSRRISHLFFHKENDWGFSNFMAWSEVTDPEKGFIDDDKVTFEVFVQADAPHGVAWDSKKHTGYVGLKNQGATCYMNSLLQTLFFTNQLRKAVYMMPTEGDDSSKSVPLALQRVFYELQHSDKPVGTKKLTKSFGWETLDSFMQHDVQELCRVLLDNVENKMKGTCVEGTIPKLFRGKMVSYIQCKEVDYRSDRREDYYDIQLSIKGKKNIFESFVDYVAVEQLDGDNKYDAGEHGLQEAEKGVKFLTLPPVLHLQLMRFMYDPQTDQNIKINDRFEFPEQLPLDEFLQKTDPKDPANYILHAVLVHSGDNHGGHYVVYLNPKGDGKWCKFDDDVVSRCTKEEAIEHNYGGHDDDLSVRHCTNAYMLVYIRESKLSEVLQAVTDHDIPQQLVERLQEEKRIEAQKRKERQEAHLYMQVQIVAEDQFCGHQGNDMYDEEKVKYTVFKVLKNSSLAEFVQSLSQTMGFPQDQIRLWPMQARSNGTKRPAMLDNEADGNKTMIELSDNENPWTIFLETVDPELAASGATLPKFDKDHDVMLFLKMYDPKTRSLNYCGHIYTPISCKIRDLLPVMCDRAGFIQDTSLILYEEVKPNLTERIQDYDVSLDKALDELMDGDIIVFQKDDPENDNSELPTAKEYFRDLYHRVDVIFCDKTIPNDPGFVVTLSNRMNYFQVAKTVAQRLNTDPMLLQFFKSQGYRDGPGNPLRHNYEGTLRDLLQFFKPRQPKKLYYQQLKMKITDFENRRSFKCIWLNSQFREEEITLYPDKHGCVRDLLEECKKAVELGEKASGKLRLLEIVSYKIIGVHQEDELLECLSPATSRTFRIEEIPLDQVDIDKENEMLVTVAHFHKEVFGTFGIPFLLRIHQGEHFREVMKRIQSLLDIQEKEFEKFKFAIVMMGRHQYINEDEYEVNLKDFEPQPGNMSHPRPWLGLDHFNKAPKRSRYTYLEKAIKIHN

Results are given in words; binding and its absence hold for the method and conditions named. For part of these data: Binding seen in cells or lysates may run through a third protein. Some entries that bind do so weakly or less than the wild type. For part of these data: Sequences can lack the tags named with a protein.

The target of experiment [1] is T1, FLAG-tagged OGT (O-GlcNAc transferase) (UniProt O15294).
T1 sequence: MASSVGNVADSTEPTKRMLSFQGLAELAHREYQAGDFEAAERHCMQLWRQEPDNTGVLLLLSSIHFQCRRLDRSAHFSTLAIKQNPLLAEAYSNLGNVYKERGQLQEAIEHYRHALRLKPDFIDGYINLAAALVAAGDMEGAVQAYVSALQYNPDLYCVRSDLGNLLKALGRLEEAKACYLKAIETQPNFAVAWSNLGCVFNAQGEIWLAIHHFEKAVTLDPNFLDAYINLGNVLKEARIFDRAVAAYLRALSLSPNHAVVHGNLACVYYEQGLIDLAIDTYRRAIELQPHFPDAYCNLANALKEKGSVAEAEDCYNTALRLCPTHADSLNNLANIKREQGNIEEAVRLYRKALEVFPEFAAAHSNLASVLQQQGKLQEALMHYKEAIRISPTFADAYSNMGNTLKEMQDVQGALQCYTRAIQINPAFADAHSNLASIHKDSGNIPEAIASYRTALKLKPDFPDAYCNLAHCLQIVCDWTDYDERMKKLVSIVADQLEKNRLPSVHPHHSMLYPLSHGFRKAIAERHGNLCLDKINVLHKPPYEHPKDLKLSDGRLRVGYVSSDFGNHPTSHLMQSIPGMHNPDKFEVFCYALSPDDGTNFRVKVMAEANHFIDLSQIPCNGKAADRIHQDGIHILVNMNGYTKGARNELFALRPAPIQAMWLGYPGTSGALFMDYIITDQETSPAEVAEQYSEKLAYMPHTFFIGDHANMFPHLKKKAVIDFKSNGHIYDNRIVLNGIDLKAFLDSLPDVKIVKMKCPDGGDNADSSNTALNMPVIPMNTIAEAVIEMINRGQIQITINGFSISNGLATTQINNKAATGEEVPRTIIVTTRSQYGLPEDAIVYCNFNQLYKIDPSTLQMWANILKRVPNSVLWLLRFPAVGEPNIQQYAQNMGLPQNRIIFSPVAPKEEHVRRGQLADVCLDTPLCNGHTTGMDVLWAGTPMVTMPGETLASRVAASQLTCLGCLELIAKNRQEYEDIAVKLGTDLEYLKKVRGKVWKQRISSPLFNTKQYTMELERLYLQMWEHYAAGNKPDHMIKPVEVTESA
In words: co-IP; HEK293T co-transfected with two tagged proteins, 48 h; lysis in 1% NP-40, 20 mM HEPES pH 7.5, 20 mM KCl, 150 mM NaCl, 5 mM EDTA; antibody 14 h at 4°C, protein A/G plus agarose; western blot for the tags.

In experiment [2] the target is 3×FLAG-tagged MLL5 (UniProt Q8IZD2). Described as above.
Experiment [3] has the same target. Nature of the experiment: co-IP; HEK293T co-transfected with three proteins (3×FLAG-MLL5, HA-USP7, V5-OGT); immunoprecipitation with anti-FLAG, anti-HA or anti-V5, western blot. On the technique in general: In western blotting, separated proteins are transferred to a membrane and probed.
The target is the same in experiment [4]. Nature of the experiment: SEC; HEK293T co-transfected with MLL5-3×FLAG, OGT-V5 and USP7; anti-FLAG M2 affinity gel, 3×FLAG peptide eluate run on Superdex-200 3.2/300 in lysis buffer; fractions assayed by western blot. Background: Size exclusion chromatography separates by hydrodynamic size, large species first.
In experiment [5] the target is HA-tagged USP7 (ubiquitin-specific protease 7) (UniProt Q93009). Nature of the experiment: co-IP; HEK293T co-transfected with three proteins (3×FLAG-MLL5, HA-USP7, V5-OGT); immunoprecipitation with anti-FLAG, anti-HA or anti-V5, western blot.
The target is the same in experiment [6]. Nature of the experiment: co-IP; HEK293T co-transfected with two tagged proteins, 48 h; lysis in 1% NP-40, 20 mM HEPES pH 7.5, 20 mM KCl, 150 mM NaCl, 5 mM EDTA; antibody 14 h at 4°C, protein A/G plus agarose; western blot for the tags.

For “Myc-tagged USP7 (from UniProt Q93009 1-1102) (enzyme)”, the binding entry (in experiment [1]; in the experiment with 3×FLAG-tagged MLL5 [2]) was “binds” each time.

On to “HA-tagged USP7 (ubiquitin-specific protease 7) (from UniProt Q93009 1-1102) (enzyme)”, for which the binding result in the experiment with 3×FLAG-tagged MLL5 [3], with 3×FLAG-tagged MLL5 [4] and with 3×FLAG-tagged MLL5 [2] was “binds” in each case.

B1: V5-tagged OGT (enzyme, UniProt O15294 1-1046)
chain: T1 sequence
For the molecule B1, the binding result (in experiment [5]; with 3×FLAG-tagged MLL5 [3]; in the experiment with 3×FLAG-tagged MLL5 [4]) was “binds” throughout.

B2: FLAG-tagged OGT (O-GlcNAc transferase) (enzyme, UniProt O15294 1-1046)
chain: T1 sequence
On to B2, for which, in experiment [6], the binding result is listed as “binds”.
